# Measured values: the supplement of paper PMC10338343
# ± gives the standard deviation. The entries are a selection whose mix differs from that of the whole data set. Many entries were measured with a wide error.
# System: MIWI (PIWIL1) piRISC loaded with Kctd7 piRNA (30 nt)
# Assay: pre-steady-state target cleavage rate (min^-1); MIWI and MILI are mouse PIWI proteins and EfPiwi is from a freshwater sponge; tags in brackets are library labels; higher = faster piRNA-guided slicing of the target
# Settings: guide: Kctd7 piRNA 5'p-UGUUAAUCUCUCAGAGAAGGUGACAGUGAU; auxiliary factor: 500 nM mouse GTSF1
# Method in brief: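 Cleave-'n-Seq used a transcribed, DNA-blocked target RNA library at 0.1 nM and active affinity-purified piRISC with one synthetic guide at 1 nM, with or without 500 nM GTSF1 partner protein, in HEPES–potassium acetate buffer at 33 °C for 0–8 or 0–960 min. Uncleaved targets were sequenced and normalised to depth and to weakly complementary targets, and three trials were pooled with k3 capped at 0.0001 min^-1. The pre-steady-state cleavage rate was estimated by a burst-and-steady-state fit.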
row,Sequence,pre-steady-state target cleavage rate
1,UACACUGUCACCUUCUCACAGAGAUAUUGA,0.00268 ± 0.0063
2,UAGUGACAGUGCUUCUCUGAGAGUUUUACA,0.000382 ± 0.017
3,UAGACUGUCACCUUGACUGAGAGAUUAUGA,0.00153 ± 0.0053
4,UAGUGACAGUCCUUCUCUCUGAGAUUAUGA,0.000671 ± 0.01
5,UAGUGAGUCACCUUCUCUGAGCAGAUUAACA,0.00233 ± 0.0082
6,UAGUGACAGUGGUUCUCUGAGCAGAUUAACA,0.000144 ± 0.017
7,UAGUGACUCACCUUCUCAGAGAGAUAAACA,0.027 ± 0.0057
8,UAGUGACAGUCCUUCUCAGAGAGAUAAACA,0.00194 ± 0.0046
9,UAGUCAGUCACCUUCUCUGAGAGAUUAACA,0.722 ± 0.034
10,UAGUGACAGUGGAAGACUGAGUCUUUAACA,0.000358 ± 0.019
11,UUCACUGUCACCUUCUCUGAGAGAAAAUGA,0.0429 ± 0.015
12,UACACUGUCACCUUCUCUGAGAGAUUAACC [g2:g28:cont:t1C],0.391 ± 0.034
13,UAGUGUGUCACCUUGACUGAGAGAUAUUGA,0.000424 ± 0.019
14,UAGUGACAGUGCUUCUCUGAGAGAUAUAACA,0.00174 ± 0.0042
15,UAGUGACUCACCUUCAGAGAGAGAUUUUGA,0.000652 ± 0.014
16,UAGUGACAGUGCUUCUCUGACGAGAUUAACA,0.000174 ± 0.016
17,UAGUGUGUCACCUUCUCUCUCAGAUUAACA,0.00132 ± 0.0072
18,UACACUGUCACCUUCUCUCUGAGAUUUUGA,0.00486 ± 0.0055
19,UAGACUGUCACCUUCUCUGACAGAUAUUGA,0.00031 ± 0.013
20,UAGACUGUCACCUUCUCUGAGAGAUUAACG [g2:g27:cont:t1G],0.674 ± 0.034
21,UAGUGACAGUGGAAGAGAGAGAGAUUUUCA,0.00025 ± 0.025
22,UAGACUGUCACCUUCUGUGAGAGAUAUUGA,0.0117 ± 0.004
23,UAGUCUGUCACCUUCUGACAGAGAUUAAGA,0.00049 ± 0.016
24,UAGACUGUCACGUUCUCUGAGUGAUUAACA,0.00628 ± 0.0015

row,Sequence,pre-steady-state target cleavage rate
1,UAGUGUGUCACCUUCUGAGAGAGAUUAUGA,0.00244 ± 0.0056
2,UUCACUGUACCUUCUCUGAGAGAUUAACA,0.712 ± 0.036
3,UAGUCUGUCACGUUCUCUGAGAGAUUUUGA,0.00232 ± 0.0034
4,UAGUGACAGUGCUUCUCUGAGUCAUUAACA,0.000186 ± 0.018
5,AAGACUGUCACCUUCUCUGAGAGAUUAACA,0.786 ± 0.036
6,UACACUGUCACCUUCUCUGACUCAUUAAGA,0.00166 ± 0.0069
7,UAGUGACAGUCCUUCUCUGAGAGUUAACA,0.000643 ± 0.0085
8,UAGACUGUGACCUUCUCUGAGAGAUAUUGA,0.00299 ± 0.0034
9,UAGUGACAGUCCUUGUCUCAGAGAUUAACA,0.000539 ± 0.014
10,UAGUGACACACCUUCAGUGAGAGAUUUUGA,0.00251 ± 0.0069
11,UACACUGUCACCUUCUCUCUCAGAUUUUGA,0.00166 ± 0.0088
12,UAGUGACAGUGCUUCUGUGAGUGAUUAACA,0.00258 ± 0.0033
13,UAGUGACAGUCCUUCUCUGAGAGAAUAAGA,0.000484 ± 0.011
14,UAGUGACAGACCUUCUCUGAGUCAUUAAGA,0.00073 ± 0.012
15,UAGUGACAGUCCAUCUCUGAGUGAUUAACA,0.000996 ± 0.0068
16,UAGUGACACACCUUCAGAGAGAGAUUAUGA,0.000968 ± 0.017
17,UACACUGUCACCUUCUCUGAGUCAUUAAGA,0.00199 ± 0.0045
18,UAGUGACAGUCCUUCUUCUGAGAGAUUAACA,0.00178 ± 0.005
19,UAGACUGUCACCAAGUCUGAGAGAUAUUGA,0.000349 ± 0.0097
20,UAGUGACACACCUUCUCUGAGAGAAAUUGA [g7:g22:cont:t1A],0.00186 ± 0.0067
21,UAGUGACAGACCUACUCUGAGAGAUUUUGA,0.000173 ± 0.038
22,UAGUGACAGACGUUCUCUCAGAGAUUAACA,0.000737 ± 0.014
23,UACACUGUCACCUUCUCUGACUGAUUUUGA,0.00172 ± 0.0065
24,UAGUGACACACCUUCUCUGAGACUUUAAGA,0.000295 ± 0.017

row,Sequence,pre-steady-state target cleavage rate
1,UAGUGACAGUGGUUCUCGAGAGAUUAACA,0.000943 ± 0.01
2,UAGAGUGUCACCUACUCUGAGAGAUUAACA,0.765 ± 0.042
3,UAGACUGUCACCUUCUCUGACUCAUUAACA,0.00133 ± 0.0037
4,UAGUGACAGACCUUCACUGAGAGAUAAACA,0.0224 ± 0.007
5,UAGUGUGUCACCUUCUCUGAGACAUAUUGA,0.00162 ± 0.0057
6,UAGUGACAGUGGAACUCUGAGUGAUUAAGA,0.000732 ± 0.018
7,UAGUGACAGACCUUCUCUCAGAGAUAAACA,0.00249 ± 0.0048
8,UAGUGACAGUCGUUCUCUGAGUGAUUAACA,0.000224 ± 0.021
9,UAGUGACAGUCCUUCUCUCGAGAGAUUAACA,0.00103 ± 0.0091
10,UAGACUGUACACCUUCUCUGAGAGAUUAACA,0.779 ± 0.055
11,UAGUGACACACCUUGUCUGAGAGAAUAACA,0.00451 ± 0.0047
12,UAGUGACACACCUUCUCUCUGAGAUUUUGA,0.000764 ± 0.0084
13,UAGUGACAGUGGAAGAGAGACAGAUUAACA,0.000347 ± 0.017
14,UAGUGACAGACCUUCUCAGUGAGAUUAACA,0.000544 ± 0.018
15,UAGUGACAGACCAUCUCUGAGAGAUUUUGA,0.000496 ± 0.011
16,UUCACUGUCUCCUUCUCUGAGAGAUUAACA,0.685 ± 0.036
17,UUCACUGUCACCUCUCUCUGAGAGAUUAACA,0.289 ± 0.022
18,UAGUGACAGACCUUCUCUGAGACAAUAACA,0.000848 ± 0.008
19,UAGUGACAGACCUUCUCUGACUCAUUAAGA,0.000416 ± 0.021
20,UAGUGACAGACCUACACUGAGAGAUUAACA,0.0013 ± 0.009
21,UAGUGAGUCACCUUCUCUGUCUGAUUAACA,0.00234 ± 0.0051
22,UAGUGUGUGACCUUCUCUGAGAGAUUUUGA,0.00158 ± 0.006

# Random excerpt: 4 entries already listed
row,Sequence,pre-steady-state target cleavage rate
10,UAGACUGUACACCUUCUCUGAGAGAUUAACA,0.779 ± 0.055
9,UAGUGACAGUCCUUCUCUCGAGAGAUUAACA,0.00103 ± 0.0091
19,UAGUGACAGACCUUCUCUGACUCAUUAAGA,0.000416 ± 0.021
5,UAGUGUGUCACCUUCUCUGAGACAUAUUGA,0.00162 ± 0.0057
